The other results are listed elsewhere or left out.
Each sequence was assayed against OsWRKY34 (Oryza sativa, UniProt Q0JBA9 1-250) (assay: protein-binding microarray (RPBM); PBS, 2% BSA, 51.3 ng/ul salmon testes DNA, 50 uM zinc acetate, 200 nM TF, 25 C, 1 h; high values mean tight binding). Conditions: protein: recombinant; tags: N-terminal polyhistidine and DsRed monomer fusion (pET32a); label: CyDye5-dUTP incorporated in the synthesized complementary strand; 3' TTTTT single-stranded linker to array surface; dsDNA, one strand shown.
In short: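 The binding signal is fluorescence intensity per array feature (arbitrary units). Readings came from an Axon 4000B scanner after a washed, 2% BSA-blocked, double-stranded custom Agilent array had been incubated for 1 h at 25 °C with 200 nM protein and 50 µM zinc acetate. The protein was a Ni–NTA-purified transcription factor fused N-terminally to polyhistidine and DsRed, expressed in E. coli BL21-CodonPlus.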

Chains of the proteins cited; added tags and fusions are not shown.
UniProt Q0JBA9, entry or part of it: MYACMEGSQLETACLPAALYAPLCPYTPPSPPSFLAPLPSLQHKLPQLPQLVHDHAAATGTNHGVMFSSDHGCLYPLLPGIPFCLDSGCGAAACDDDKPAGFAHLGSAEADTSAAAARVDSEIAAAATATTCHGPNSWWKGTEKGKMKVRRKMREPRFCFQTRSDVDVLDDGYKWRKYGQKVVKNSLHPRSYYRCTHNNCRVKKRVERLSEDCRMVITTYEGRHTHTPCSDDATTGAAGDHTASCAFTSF

Sequence | binding signal
CAATGCACTTGCACAGTCCCTTCTGATTTCTTCGCGAATCCGGAGTCACCTAGTGCAG | 8160 fluorescence intensity (a.u.)
TCCAGGAATTTTAACAATCGTGCACAAACATTTTATAACACGGAGTCACCTAGTGCAG | 8360 fluorescence intensity (a.u.)
CCATGCACATTTCGATACATCGTCACTTAGTTAATTCAATCGGAGTCACCTAGTGCAG | 8580 fluorescence intensity (a.u.)
GCGTGGGTTGGGCTGGCAAATACTACACCGTGGGCTTCCACGGAGTCACCTAGTGCAG | 14300 fluorescence intensity (a.u.)
GCGTCTGGGCTTATTTTTTCGACGGTCACTGCACCTGAATCGGAGTCACCTAGTGCAG | 8990 fluorescence intensity (a.u.)
GCGGCGGTGGGGATGGGGATAGGGCGGCGGCGGCGGATGGCGGAGTCACCTAGTGCAG | 13600 fluorescence intensity (a.u.)
CCGCCGAGCTCCTTATACACCATGCATTCTCGCCGGCAATCGGAGTCACCTAGTGCAG | 12300 fluorescence intensity (a.u.)
GAGCTGTAGTATCATCATGTAATAGTGTTTGCTTCTTATTCGGAGTCACCTAGTGCAG | 14300 fluorescence intensity (a.u.)
AGCTACCATCCATGATCTTTGTGTTTTGATTGTAAAAGACCGGAGTCACCTAGTGCAG | 11000 fluorescence intensity (a.u.)
TAGCCATCCTGCCTATTGCGACATTCTTACTCTACTTTGGCGGAGTCACCTAGTGCAG | 9030 fluorescence intensity (a.u.)
TTGACTGTGTTTGTTTGTTTACCTATCTATAACACTCTTCCGGAGTCACCTAGTGCAG | 9270 fluorescence intensity (a.u.)
TTTGTAGTAATTCTGTGGTGATTTGGATATCTTGCAACAACGGAGTCACCTAGTGCAG | 10400 fluorescence intensity (a.u.)
TCTCCCAGCTAGTCAGCTACCCCATGGATGTTTAACATTACGGAGTCACCTAGTGCAG | 8450 fluorescence intensity (a.u.)
TCAAATCAGAGAATTTCATTCTATATATGGAGTTTATCCTCGGAGTCACCTAGTGCAG | 9070 fluorescence intensity (a.u.)
TATATATATATATATATATATATATAATCTACTTGGCATGCGGAGTCACCTAGTGCAG | 11400 fluorescence intensity (a.u.)
GCCTAATTAATTCGTCATTAGTACATGTGGGTTACTGTAGCGGAGTCACCTAGTGCAG | 9090 fluorescence intensity (a.u.)
TGGTTGGCAGCTGATTTGGTAATTGCTCTCTCATTCGCTCCGGAGTCACCTAGTGCAG | 13600 fluorescence intensity (a.u.)
ATGGGTTGGATTGGTTTGGATTCTAAGAGAAGACAAATGACGGAGTCACCTAGTGCAG | 8420 fluorescence intensity (a.u.)
CACACAACGCTTCTGGTTCTCACACACCAAGGAGGGGACGCGGAGTCACCTAGTGCAG | 8980 fluorescence intensity (a.u.)
ATCCATCCCTACCTCAGCATCTCTCTCTCTCATTCTCTCTCGGAGTCACCTAGTGCAG | 9940 fluorescence intensity (a.u.)
CTTCTTATTTCCTCTGTTTTTCTTTCGCGTTTTTTATGGTCGGAGTCACCTAGTGCAG | 13600 fluorescence intensity (a.u.)

Sequence | binding signal
CTTGTTTTCTGCTTCCTTGCCTTGCTGCAACATTACCAACCGGAGTCACCTAGTGCAG | 9370 fluorescence intensity (a.u.)
ATCGCATCACCGCCGCGCCGCGCCGCCACCGTCCTCTCCGCGGAGTCACCTAGTGCAG | 8830 fluorescence intensity (a.u.)
TCCTTTATTTTTCCCATATCTCTCCTTTTTTTACACTTTTCGGAGTCACCTAGTGCAG | 13600 fluorescence intensity (a.u.)
AGAGGCTAAGGAGAGCAACTCCACTCACTCTGTGTTTCACCGGAGTCACCTAGTGCAG | 8410 fluorescence intensity (a.u.)
GCTCGCCGCCGGCCGCCGCCACCACCTTCCCGTAGCTGTACGGAGTCACCTAGTGCAG | 8300 fluorescence intensity (a.u.)
AAACCGCCATTAATTTACACTAATCACTCCTACTACTCCTCGGAGTCACCTAGTGCAG | 10200 fluorescence intensity (a.u.)
GGCAGTCGTATCTTTCCTTCATCACATTGCACATACAACTCGGAGTCACCTAGTGCAG | 14900 fluorescence intensity (a.u.)
TCATCGATTTTTCAAGTGCTGGTGTATTCTTTTGTGAGTGCGGAGTCACCTAGTGCAG | 8990 fluorescence intensity (a.u.)
AGTAGCGCCCATCTGTTCGCCCATTCCCGAACCCGTCGTCCGGAGTCACCTAGTGCAG | 8710 fluorescence intensity (a.u.)
ACCGCACGTTCCGCAATTAATTCCGTTCCGAATCCCGAGCCGGAGTCACCTAGTGCAG | 8220 fluorescence intensity (a.u.)
ACACTAACACGTGGCGCAATCCTCATCTCTCGCTCCGGATCGGAGTCACCTAGTGCAG | 8120 fluorescence intensity (a.u.)
CGTCGTCTTCATCATCGTCGCCCCGCGATTCCCGTGTTGCCGGAGTCACCTAGTGCAG | 9550 fluorescence intensity (a.u.)
TTGCCACGGCCTTGTTTAGATCCACCCTAAAATTTTTCACCGGAGTCACCTAGTGCAG | 8740 fluorescence intensity (a.u.)
ATTTTTCTCATGGATTGACTTTCTACCTTAGTCAAACACTCGGAGTCACCTAGTGCAG | 9530 fluorescence intensity (a.u.)
GCTGGCGCCTCATTGCCCGTCTGTTCCGCCACCTACCACCCGGAGTCACCTAGTGCAG | 9530 fluorescence intensity (a.u.)
ATAAATTATTAGTACTATTCCATATACTACATTTTCTTCTCGGAGTCACCTAGTGCAG | 8440 fluorescence intensity (a.u.)
GACTTTTCGGTTCTTAAGCTGACTTATAATTAGTCTAAACCGGAGTCACCTAGTGCAG | 8630 fluorescence intensity (a.u.)
TAGTTGAGGGATCTGTTGTATATGGTTTTGGGGTTGAAGGCGGAGTCACCTAGTGCAG | 11800 fluorescence intensity (a.u.)
CCCGTCGATCCACCGCGGGGACAAGCTCTAGATCTCTCTCCGGAGTCACCTAGTGCAG | 8440 fluorescence intensity (a.u.)
AATTATGACTCTCTTGTGTGTTCCATATATATAAACTGTACGGAGTCACCTAGTGCAG | 8050 fluorescence intensity (a.u.)
CAGCAGTTTAAAACTCCGAACCCCGTTGCATCTCTACCAACGGAGTCACCTAGTGCAG | 8320 fluorescence intensity (a.u.)

Reformatted: results already given.
Sequence	binding signal
TTGACTGTGTTTGTTTGTTTACCTATCTATAACACTCTTCCGGAGTCACCTAGTGCAG	9270 fluorescence intensity (a.u.)
TCTCCCAGCTAGTCAGCTACCCCATGGATGTTTAACATTACGGAGTCACCTAGTGCAG	8450 fluorescence intensity (a.u.)

Reference: PMC7819943, “Rice protein-binding microarrays: a tool to detect cis-acting elements near promoter regions in rice”
